US8143287B2, “Thrombopoietin mimetics” (Stategics, Inc., priority 2006, dated 2012)
Some of these results come from one statement about several compounds together.

Tested on: primary CD34+ progenitor cells isolated from human bone marrow
Assay: In vitro proliferation assay with CD34+ progenitor cells (CellTiter-Glo luminescence)
Type: cell-based
Conditions: for concentration at which proliferative activity is seen: 10 days incubation; for stimulation index: at a concentration of 0.625 micromolar

Row | Structure (SMILES) | concentration at which proliferative activity is seen | stimulation index
1 | CC1=NN(c2ccc(C)c(C)c2)C(=O)/C1=N\Nc1cccc(C2CCCC(C(=O)O)C2)c1O (stereo not shown) [Example 3, 3-(3′-{2-[1-(3,4-dimethylphenyl)-3-methyl-5-oxo-4,5-dihydro-1H-pyrazol-4-ylidene]hydrazino}-2′-hydroxy-phenyl)cyclohexane-1-carboxylic Acid] | less than or equal to 1 micromolar | higher than 15
2 | CC1=NN(c2ccc(C(C)(C)C)cc2)C(=O)/C1=N\Nc1cccc(C2CCCC(C(=O)O)C2)c1O (stereo not shown) [Example 4, 3-(3′-{2-[1-(4-tert-butylphenyl)-3-methyl-5-oxo-4,5-dihydro-1H-pyrazol-4-ylidene]hydrazino}-2′-hydroxy-phenyl)cyclohexane-1-carboxylic Acid] | less than or equal to 1 micromolar | higher than 15
